# Results as given in the supplement of paper PMC8728848.
# Some of the results follow.
# Columns and labels:
# Assay in all cases: glycan array binding signal (z-score within array); higher = stronger binding
# Conditions in all cases: glycan notation: IUPAC condensed, linker removed
# [1] = molecular target: GalNAc(b1-4)GlcNAc(b1-2)Man
# Method in brief: (§1)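 The binding signal is a Z-score computed within each array and averaged over linkers. Arrays of the same protein sequence at different concentrations or buffers were also averaged together. Data originate from 3228 arrays in the Consortium for Functional Glycomics database, kept only where the protein sequence was available.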
# [2] = molecular target: GalNAc(b1-4)GlcNAc(b1-2)Man(a1-3)[GalNAc(b1-4)GlcNAc(b1-2)Man(a1-6)]Man(b1-4)GlcNAc(b1-4)GlcNAc
# Method in brief: as §1
# [3] = molecular target: GalNAc(b1-4)GlcNAc(b1-3)GalNAc(b1-4)GlcNAc
# Method in brief: as §1
# GalNAc(b1-4)GlcNAc6S = molecular target: GalNAc(b1-4)GlcNAc6S
# Method in brief: as §1
# GalNAc(b1-6)GalNAc = molecular target: GalNAc(b1-6)GalNAc
# Method in brief: as §1
# GalNAc3S(b1-4)GlcNAc = molecular target: GalNAc3S(b1-4)GlcNAc
# Method in brief: as §1
# GalNAc3S(b1-4)GlcNAc3S = molecular target: GalNAc3S(b1-4)GlcNAc3S
# Method in brief: as §1
# [4] = molecular target: GalNAc3S(b1-4)[Fuc(a1-3)]GlcNAc
# Method in brief: as §1
# GalNAc4S6S(b1-4)GlcNAc = molecular target: GalNAc4S6S(b1-4)GlcNAc
# Method in brief: as §1
# GalNAc6S(b1-4)GlcNAc = molecular target: GalNAc6S(b1-4)GlcNAc
# Method in brief: as §1
# Glc(a1-4)Glc = molecular target: Glc(a1-4)Glc
# Method in brief: as §1
# [5] = molecular target: Glc(a1-4)Glc(a1-4)Glc(a1-4)Glc
# Method in brief: as §1
# Glc(a1-6)Glc(a1-6)Glc = molecular target: Glc(a1-6)Glc(a1-6)Glc
# Method in brief: as §1
# [6] = molecular target: Glc(a1-6)Glc(a1-6)Glc(a1-6)Glc
# Method in brief: as §1
# Glc(b1-4)Glc = molecular target: Glc(b1-4)Glc
# Method in brief: as §1
# Glc(b1-6)Glc = molecular target: Glc(b1-6)Glc
# Method in brief: as §1
# GlcA(b1-3)Gal = molecular target: GlcA(b1-3)Gal
# Method in brief: as §1
# GlcA(b1-3)GlcNAc = molecular target: GlcA(b1-3)GlcNAc
# Method in brief: as §1
# GlcA(b1-6)Gal = molecular target: GlcA(b1-6)Gal
# Method in brief: as §1
# [7] = molecular target: GlcA3S(b1-3)Gal(b1-4)GlcNAc(b1-2)Man
# Method in brief: as §1
# [8] = molecular target: GlcA3S(b1-3)Gal(b1-4)GlcNAc(b1-3)Gal(b1-4)Glc
# Method in brief: as §1
# [9] = molecular target: GlcNAc(a1-3)Gal(b1-4)GlcNAc
# Method in brief: as §1
# [10] = molecular target: GlcNAc(a1-4)Gal(b1-3)GlcNAc
# Method in brief: as §1
# [11] = molecular target: GlcNAc(a1-4)Gal(b1-4)GalNAc
# Method in brief: as §1
# [12] = molecular target: GlcNAc(a1-4)Gal(b1-4)GlcNAc
# Method in brief: as §1
# [13] = molecular target: GlcNAc(a1-4)Gal(b1-4)GlcNAc(b1-3)Gal(b1-4)Glc
# Method in brief: as §1
# [14] = molecular target: GlcNAc(a1-4)Gal(b1-4)GlcNAc(b1-3)Gal(b1-4)GlcNAc
# Method in brief: as §1
# [15] = molecular target: GlcNAc(a1-4)Gal(b1-4)GlcNAc(b1-3)Gal(b1-4)GlcNAc(b1-3)Gal(b1-4)GlcNAc
# Method in brief: as §1
# [16] = molecular target: GlcNAc(a1-4)Gal(b1-4)GlcNAc(b1-3)Gal(b1-4)[Fuc(a1-3)]GlcNAc(b1-3)Gal(b1-4)[Fuc(a1-3)]GlcNAc
# Method in brief: as §1
# [17] = molecular target: GlcNAc(a1-6)Gal(b1-4)GlcNAc
# Method in brief: as §1
binder,measurement,setting,value
Awp1 (Candida glabrata) (protein) MSLITIFAFLIKATLVLSLDILTPTTLTGDQTFNEDVSVVSSLTLNDGSQYLFNNLLQIAPSSASVTANALAAVSVFTFSLPPSSSLSNSGTLIISNSNTGPSTEQHIVITPNVMANTGTITLSLAHTNTDSSSTLIIDPVTFYNTGTINYESIGSETNDPSLTGNILSIGSSGRTLQNLGTINLNAANSYYLLGTITENSGSINVQKGFLYVNALDFIGNTINLSTTTALAFISPVSQVVRVRGVFFGNIIASVGSSGTFSYNTQTGILTVTTNGVYSYDIGCGYNPALMSGQQETLSFQGNPYDTFLVLVNQPIPSDLTCAAVSSSITPSSSVEPSSSVVPSSSVEPSSSVEPSSSVEPSSSVEPSSSVEPSSSVEPSSSVEPSSSVEPSSSVEPSSSVEPSSSVEPSSSVEPSSSVEPSSSVEPSSSVEPSSSVEPSSSVEPSSSVEPSSSVEPSSLIVPSSSVEPSSSVLPSSSVVPSSSVEPSTPPIPSSSVEPSSSVVPSSPAVPSSSVEPSTPPIPSSSVVSASVFDTSSTLPSSPSVPPSSVSPSTISTPSSSAAPSSFCPTCVSSGTPPAPSSSAIVPTSSAGGGNGGDNREPGAAGQPGAAGQPGAAGQPGAAGQPGAAGQPGAAGQPGAAGQPGAAGQPGAAGQPGAAGQPGAGFGVGSEQPTPGAGAGSGSADGNQSGTGSGTGNGQQGSGQAGSGQAGSGQEGSGQAGSGQAGSGQAGSGQAGSGQAGLDNTASGQSEGGQASAMDGDQSGRDGQSNSGSLLQPNAQQGTGSGTGSDIGADQASGESPGQIGDAQPGSGTDQSSGRHSLAAEARTSQSHSLAADARTRSTTRQTSVIAPDTAPGTASGTAPGTAPGTAVVTTFHGCGTVNHKGMINILLALALLVLL,glycan array binding signal (z-score),[1],-1.79
same,glycan array binding signal (z-score),[2],0.147
same,glycan array binding signal (z-score),[3],1.95
same,glycan array binding signal (z-score),GalNAc(b1-4)GlcNAc6S,-0.514
same,glycan array binding signal (z-score),GalNAc(b1-6)GalNAc,2.29
same,glycan array binding signal (z-score),GalNAc3S(b1-4)GlcNAc,0.145
same,glycan array binding signal (z-score),GalNAc3S(b1-4)GlcNAc3S,-0.122
same,glycan array binding signal (z-score),[4],-0.247
same,glycan array binding signal (z-score),GalNAc4S6S(b1-4)GlcNAc,1.51
same,glycan array binding signal (z-score),GalNAc6S(b1-4)GlcNAc,1.42
same,glycan array binding signal (z-score),Glc(a1-4)Glc,-0.3
same,glycan array binding signal (z-score),[5],0.159
same,glycan array binding signal (z-score),Glc(a1-6)Glc(a1-6)Glc,-0.842
same,glycan array binding signal (z-score),[6],-1.38
same,glycan array binding signal (z-score),Glc(b1-4)Glc,-0.497
same,glycan array binding signal (z-score),Glc(b1-6)Glc,-0.716
same,glycan array binding signal (z-score),GlcA(b1-3)Gal,0.728
same,glycan array binding signal (z-score),GlcA(b1-3)GlcNAc,-0.501
same,glycan array binding signal (z-score),GlcA(b1-6)Gal,-0.088
same,glycan array binding signal (z-score),[7],0.488
same,glycan array binding signal (z-score),[8],0.4
same,glycan array binding signal (z-score),[9],1.21
same,glycan array binding signal (z-score),[10],0.179
same,glycan array binding signal (z-score),[11],-0.667
same,glycan array binding signal (z-score),[12],0.107
same,glycan array binding signal (z-score),[13],-0.309
same,glycan array binding signal (z-score),[14],-0.539
same,glycan array binding signal (z-score),[15],1.35
same,glycan array binding signal (z-score),[16],0.05
same,glycan array binding signal (z-score),[17],-0.703

# 2 entries from above, reformatted:
binder	measurement	setting	value
Awp1 (Candida glabrata) (protein) MSLITIFAFLIKATLVLSLDILTPTTLTGDQTFNEDVSVVSSLTLNDGSQYLFNNLLQIAPSSASVTANALAAVSVFTFSLPPSSSLSNSGTLIISNSNTGPSTEQHIVITPNVMANTGTITLSLAHTNTDSSSTLIIDPVTFYNTGTINYESIGSETNDPSLTGNILSIGSSGRTLQNLGTINLNAANSYYLLGTITENSGSINVQKGFLYVNALDFIGNTINLSTTTALAFISPVSQVVRVRGVFFGNIIASVGSSGTFSYNTQTGILTVTTNGVYSYDIGCGYNPALMSGQQETLSFQGNPYDTFLVLVNQPIPSDLTCAAVSSSITPSSSVEPSSSVVPSSSVEPSSSVEPSSSVEPSSSVEPSSSVEPSSSVEPSSSVEPSSSVEPSSSVEPSSSVEPSSSVEPSSSVEPSSSVEPSSSVEPSSSVEPSSSVEPSSSVEPSSSVEPSSSVEPSSLIVPSSSVEPSSSVLPSSSVVPSSSVEPSTPPIPSSSVEPSSSVVPSSPAVPSSSVEPSTPPIPSSSVVSASVFDTSSTLPSSPSVPPSSVSPSTISTPSSSAAPSSFCPTCVSSGTPPAPSSSAIVPTSSAGGGNGGDNREPGAAGQPGAAGQPGAAGQPGAAGQPGAAGQPGAAGQPGAAGQPGAAGQPGAAGQPGAAGQPGAGFGVGSEQPTPGAGAGSGSADGNQSGTGSGTGNGQQGSGQAGSGQAGSGQEGSGQAGSGQAGSGQAGSGQAGSGQAGLDNTASGQSEGGQASAMDGDQSGRDGQSNSGSLLQPNAQQGTGSGTGSDIGADQASGESPGQIGDAQPGSGTDQSSGRHSLAAEARTSQSHSLAADARTRSTTRQTSVIAPDTAPGTASGTAPGTAPGTAVVTTFHGCGTVNHKGMINILLALALLVLL	glycan array binding signal (z-score)	[2]	0.147
same	glycan array binding signal (z-score)	[3]	1.95
